About 18,000 (4.4%) of roughly 410,000 compounds were called active. The shares of active, inactive and inconclusive entries below differ from those in the screen. Rule as the data show it: active = activity change below about -60%; inconclusive = no clear call, values can overlap the other calls; inactive = above about -39%.
Assay: qHTS Assay for inhibitors of the human cytomegalovirus (HCMV)
Settings: HFF cells, HCMV-luciferase reporter, 72 h; at 57.5 µM; stronger effect = lower value
How it was run: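 Screen run at 2 compound doses on HFFs infected with reporter HCMV, MOI 1 PFU/cell. Luciferase activity from cell lysates at 72 h post infection gave inhibition relative to buffer-only and Salinomycin wells.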
% is scaled to controls: 0 for no effect and ±100 for the full control effect.

| Structure (SMILES) | activity change, negative = inhibition |
| --- | --- |
| COc1ccc(C2=CSC(/N=C/c3ccc(F)cc3)=NN2)cc1 | inconclusive: -56.6% |
| COc1ccccc1CC1S/C(=N/N=C/c2ccco2)NC1=O (configuration not stated) | inconclusive: -54.5% |
| Cc1ccc(Cn2ccc(-c3cnc(-c4ccccc4)s3)n2)cc1 | inconclusive: -45.1% |
| O=C(CCS(=O)(=O)c1ccc(Br)cc1)Nc1ccc(Cl)c(C(F)(F)F)c1 | inconclusive: 0% |
| CCOC(=O)c1cccc(NC(=O)c2cn(-c3cccc(OC)c3)c(=O)c3ccccc23)c1 | inconclusive: -43.2% |
| COCCn1c(N)c(N(Cc2ccccc2)C(=O)C2CCCC2)c(=O)[nH]c1=O | inconclusive: -51.1% |
| Cc1cc(C)c(Cn2c3ccccc3c3cnn(CC(=O)NCc4ccccn4)c(=O)c32)c(C)c1 | inconclusive: -55.8% |
| O=C1NC(=O)/C(=C/c2ccc(-c3cccc([N+](=O)[O-])c3)o2)S1 | inactive: -33.2% |
| O=C(CCNS(=O)(=O)c1ccc(Br)s1)Nc1ccc(Cl)cc1 | inconclusive: -40.3% |
| CCC(=O)N1CCN(c2ccnc3cc(Cl)ccc23)CC1 | inconclusive: -59.4% |
| CCOC(=O)c1sc2c(c1C)c(=O)n(Cc1ccccc1)c(=O)n2CCN(C)C | inconclusive: -48.1% |
| Cn1c[n+](C)cc1-c1ccc(/C(N)=N/O)cc1 | inactive: -12.2% |
| COc1ccc(Cc2[nH]n3c(=O)cc(C(C)C)nc3c2-c2ccccc2)cc1 | active: -73% |
| N#CC(CCc1ccc([N+](=O)[O-])cc1)(CCc1ccc([N+](=O)[O-])cc1)C(N)=O | inconclusive: -42.9% |
| CCCCOc1nc2ccccc2c(=O)n1-c1ccccc1 | inconclusive: -43.3% |
| O=C(O)c1ccc(N2C(=O)c3cccc(Oc4ccc(Cl)cc4)c3C2=O)cc1 | inconclusive: -54.8% |
| Cc1ccc(C(c2ccccc2)c2c(C)[nH]c3ccccc23)s1 (configuration not stated) | active: -83.4% |
| c1ccc2c(c1)ccc1ccccc12 | inconclusive: -43.9% |
| O=C(Nc1cccnc1)C1CCN(S(=O)(=O)c2cccs2)CC1 | inconclusive: -50.8% |
| Cc1[nH]c2ccccc2c1CN1CCC(Cc2ccccc2)CC1 | inconclusive: -44.8% |
| S=c1sc2ccccc2n1CCc1ccncc1 | inconclusive: -46.5% |
| Cc1cccc(C)c1-n1nnnc1C(c1ccnc2ccccc12)N1CCN(c2ccccc2F)CC1 (configuration not stated) | inconclusive: -46% |

| Structure (SMILES) | activity change, negative = inhibition |
| --- | --- |
| O=C(c1ccco1)c1cn[nH]c1-c1ccc(Cl)cc1O | inconclusive: -56.6% |
| COc1cc(OC)cc(C(=O)OCC(=O)Nc2cccc(S(=O)(=O)NC3=NCCCCC3)c2)c1 | inactive: -18.3% |
| COc1cc2c(cc1OC)C1(CCCCC1)CN(C)C2 | inconclusive: -49.3% |
| Cc1cc(C(=O)CCl)c(C)n1CC1COc2ccccc2O1 (configuration not stated) | active: -96.1% |
| O=S(=O)(NCc1nnnn1-c1ccc(F)cc1)c1ccc(F)cc1 | inactive: 2.77% |
| CCCCN(C)CCCNC(=O)Cn1ncc2c3ccccc3n(Cc3ccccc3F)c2c1=O | active: -105% |
| CSc1ccc(COC(=O)c2cc([N+](=O)[O-])ccc2N2CCOCC2)cc1 | active: -83% |
| COc1cc(OC)c(OC)cc1/C=N/NC(=O)CSc1ccccc1F | inconclusive: -44.6% |
| Fc1cccc(-c2cc3nc4c(c(N5CCOCC5)n3n2)CCCC4)c1 | inactive: 66.3% |
| CCn1c(COc2ccc(C)cc2)nc2ccccc21 | inconclusive: -51.7% |
| O=C(NCc1ccc(F)cc1)N1CCN(C(=O)c2ccccc2)CC1 | inconclusive: -51.2% |
| O=C(Cc1ccc(Cl)cc1)Nc1cccc2ncccc12 | inconclusive: -51.1% |
| O=C(/C=C/c1ccc2c(c1)OCO2)NCCSCc1c(Cl)cccc1Cl | inconclusive: -47% |
| C=CCN(CC=C)CCCOc1ccc(Br)cc1Cl | inactive: -29.2% |
| CC(C)c1cnc2c(c1SCc1cccc(F)c1)c(=O)n(C)c(=O)n2C | inconclusive: -50.3% |
| CCNC(=S)NNC(=O)c1csc(C)c1 | inconclusive: -44% |
| Cc1c(C(=O)Nc2cccc(Cl)c2)c2ccccn2c1CCc1ccncc1 | inactive: -8.07% |
| CC(=O)Oc1ccc(N2C(=O)C3C4C=CC(CC4)C3C2=O)cc1[N+](=O)[O-] (configuration not stated) | inconclusive: -47% |
| COc1ccccc1CNCCS(=O)(=O)NCc1ccccc1 | inactive: -18.4% |
| CCN(CC)S(=O)(=O)c1cc(NC(=O)CNc2cccc(S(=O)(=O)N3CCOCC3)c2)ccc1C | active: -85.1% |
| COc1ccc(S(=O)(=O)N2CCN(Cc3ccc4c(c3)OCO4)CC2)cc1F | inconclusive: -41.1% |
| O=C(Nc1cccc(Cl)c1N1CCOCC1)c1ccc2c(c1)OCCO2 | inconclusive: -44.4% |

Fetched one by one from the entries so far, three records:

| Structure (SMILES) | activity change, negative = inhibition |
| --- | --- |
| Fc1cccc(-c2cc3nc4c(c(N5CCOCC5)n3n2)CCCC4)c1 | inactive: 66.3% |
| CSc1ccc(COC(=O)c2cc([N+](=O)[O-])ccc2N2CCOCC2)cc1 | active: -83% |
| O=C(c1ccco1)c1cn[nH]c1-c1ccc(Cl)cc1O | inconclusive: -56.6% |

Further records.

| Structure (SMILES) | activity change, negative = inhibition |
| --- | --- |
| COc1ccc(CCNC(=O)COc2ccc(S(=O)(=O)NC3CCCCC3)cc2Cl)cc1OC | active: -62.3% |
| COC(=O)C1=C(c2ccc(OC)c(OC)c2)C[C@@H]2CC[C@H]1N2C(=O)NCc1ccc(F)cc1 | inconclusive: -58.5% |
| COc1ccc2c3c1O[C@H]1C[C@@H](O)C=C[C@@]31CCN(C)C2 | inconclusive: -46.3% |
| CCCNC(=S)N1CCN(c2nc(-c3ccc(C)cc3)cs2)CC1 | inconclusive: -46.5% |
| O=C(c1ccc(Cl)cc1)c1c[nH]c(C(=O)NNc2cccc(Cl)n2)c1 | inactive: -24.1% |
| O=C(C(=O)N1CCCC1)c1c(-c2ccccc2)[nH]c2ccccc12 | inactive: -37.9% |
| CCN(CC)C(=O)CSc1nc2cc3c(cc2c(=O)n1CCCCCC(=O)NCCc1ccc(OC)c(OC)c1)OCO3 | active: -82.5% |
| O=c1cc(CN2CCN(c3cccc(Cl)c3)CC2)c2cc(O)c(-c3ccccc3)cc2o1 | inactive: 2.07% |
| O=C(Nc1cccc2c1CCCC2)c1ccccc1Cl | inconclusive: -43.1% |
| CCOC1=C/C(=C/c2c(N)n3nc(S(=O)(=O)CC)sc3nc2=O)C=CC1=O | inactive: -4.54% |
| CCCCC1(Cc2ccc(OC)c([N+](=O)[O-])c2)C(=O)N(c2ccccc2)N(c2ccccc2)C1=O | inconclusive: -50.6% |
| O=C(CN1C(=O)c2ccccc2S1(=O)=O)NC(Nc1ccccc1F)C(Cl)(Cl)Cl (configuration not stated) | active: -105% |
| CCOC(=O)N1CCc2c(sc(NCc3ccc(N(C)C)cc3)c2C(=O)Nc2ccc(OC)cc2)C1 | active: -65.4% |
| CCn1cnc2sc(C(=O)Oc3ccc(Br)cc3)c(C)c2c1=O | inactive: -30.5% |
| O=C(/C=C/c1ccco1)NC(=S)N1CCCCC1 | inconclusive: -53.7% |
| CSCCC1NC(=O)C(C(C)=Nc2ccccc2)=C1O (configuration not stated) | inconclusive: -47.1% |
| O=C(O)c1ccc(-n2cccc2/C=C2/NC(=O)N(c3ccccc3)C2=O)cc1 | inconclusive: -47.4% |
| O=C(Nc1ccc(F)cc1F)c1cc2c(=O)n3ccccc3nc2s1 | inactive: 7.33% |
| COc1cc(CNCCSc2nnnn2C)cc(OC)c1OC | inactive: 70.5% |
| Cc1ccc(CNC(=O)C(=O)NCCC2CCCCN2S(=O)(=O)c2cccs2)cc1 (configuration not stated) | inactive: -22.1% |
| CCOC(C(=O)OCCCN(CC)CC)(c1ccccc1)c1ccccc1 | inconclusive: -45.8% |

| Structure (SMILES) | activity change, negative = inhibition |
| --- | --- |
| O=C1NCN(c2ccccc2)C12CCN(C(c1ccccc1)c1nnnn1-c1ccc3c(c1)OCCO3)CC2 (configuration not stated) | inconclusive: -42.6% |
| O=C(CC1S/C(=N/N=C/c2c[nH]c3ccccc23)NC1=O)Nc1ccccc1 (configuration not stated) | inactive: 76.9% |
| CSc1ccccc1C(=O)C1CCCN(Cc2cnn(-c3ccccc3)c2)C1 (configuration not stated) | inconclusive: -41.3% |
| CCCOC(=O)/C(=C\C=C\c1ccco1)NC(=O)c1ccccc1 | inconclusive: -41.4% |
| COc1ccc(NC(=O)Cn2c(C)cc(=O)c3ccccc32)cc1 | active: -79.8% |
| O=C(Nc1cccc2c1CCCC2)c1cc(C2CCCCN2C(=O)CCCc2ccccc2)on1 (configuration not stated) | inconclusive: -47.6% |
| COc1cc(CCC(=O)Nc2ccc(C)c(S(=O)(=O)N3CCCCCC3)c2)cc(OC)c1OC | active: -70% |
| O=Cc1ccccc1Cl | inactive: -23.4% |
| CC(C)(C)OC(=O)N1CCC(c2c(C(=O)NCc3ccco3)cnn2-c2ccccc2)CC1 | inconclusive: 0% |
| CC1CCN(C(=O)CSc2nc(C3CC3)nc3ccccc23)CC1 | inconclusive: -52.9% |
| COc1ccc(-n2cnnc2SCC(=O)N2CCN(S(=O)(=O)c3ccccc3)CC2)cc1 | inconclusive: -41.4% |
| Cc1ccc(C(C(=O)NCc2ccc(F)cc2)N(Cc2ccco2)C(=O)c2snc(C(N)=O)c2N)o1 (configuration not stated) | active: -81.5% |
| CCOc1ccccc1NC(=S)NCCc1ccccc1 | inconclusive: -51.9% |
| CCOc1cccc(C2c3[nH]c4ccccc4c3CCN2C(=O)CCC2CCCC2)c1 (configuration not stated) | inactive: -16.6% |
| c1coc(C2=Nc3cccc4cccc(c34)N2)c1 | inconclusive: -58.7% |
| N=c1c(C(=O)NCc2ccc(F)cc2)cc2c(=O)n3ccccc3nc2n1CCCN1CCOCC1 | inconclusive: -58.6% |
| O=CNC1CCCc2c1[nH]c1ccc(Cl)cc21 (configuration not stated) | inconclusive: -41.6% |
| Cc1ccc(C(=O)Nc2ccc3c(c2)C(=O)N(C)C3=O)c(C)c1 | inconclusive: -51.2% |
| COc1cc(Cl)c(C)cc1NC(=O)Cn1ncc2c(=O)oc3ccccc3c21 | inactive: 3.37% |
| CCC1=NN2C(=N)/C(=C/c3cc(C)n(Cc4ccccc4)c3C)C(=O)N=C2S1 | inconclusive: -40.6% |
| COC(=O)c1ccc(C2/C(=C(\O)c3cccc(OC)c3)C(=O)C(=O)N2CCCN2CCOCC2)cc1 (configuration not stated) | inconclusive: -49.5% |

Some of the entries above in another layout.
N=c1c(C(=O)NCc2ccc(F)cc2)cc2c(=O)n3ccccc3nc2n1CCCN1CCOCC1
  activity change, negative = inhibition: inconclusive: -58.6%
O=CNC1CCCc2c1[nH]c1ccc(Cl)cc21 (configuration not stated)
  activity change, negative = inhibition: inconclusive: -41.6%
Cc1ccc(C(=O)Nc2ccc3c(c2)C(=O)N(C)C3=O)c(C)c1
  activity change, negative = inhibition: inconclusive: -51.2%

From PubChem BioAssay AID1259415 (National Center for Advancing Translational Sciences (NCATS), 2018)
